These are yes or no findings as the source states them, for the method shown. In cells and extracts the contact can be indirect. Some results given as binding are weak or reduced against the parent protein; the word gives no strength.
Legend:
[1] = target: BRG1 (human (endogenous in Raji, MLS, EWS and HT1080 cell lines)) (UniProt P51532); assay: co-IP; biotinylated anti-BRG1 antibody and streptavidin Dynabeads on nuclear extracts of MLS 402-91, MLS 2645-94, EWS TC-71 and EWS IOR/CAR; elution with 1% formic acid, then with LDS sample buffer; immunoblot
[2] = target: BRG1 (human (endogenous in Raji, MLS, EWS and HT1080 cell lines)) (UniProt P51532); assay: co-IP; BRG1 IP quantification from nuclear extracts of HT1080 24 h after transient transfection with FUS-DDIT3-dsRED/-EGFP, EWSR1-FLI1-EGFP or dsRED/EGFP alone; immunoblot of input, bound and non-bound fractions
[3] = target: BRG1 (human (endogenous in Raji, MLS, EWS and HT1080 cell lines)) (UniProt P51532); assay: co-IP; BRG1 IP quantification: 100 ug nuclear extract of MLS 402-91 or EWS TC-71, Benzonase during cell disruption, washes in IP wash buffer (150 mM KCl), LDS elution; immunoblot of input, bound and non-bound fractions
[4] = target: BRG1 (human (endogenous in Raji, MLS, EWS and HT1080 cell lines)) (UniProt P51532); assay: co-IP; BRG1 IP from nuclear extracts of HT1080 with stable expression of FUS-DDIT3-EGFP or DDIT3-EGFP; negative control IgG; immunoblot with antibodies against BRG1 and DDIT3
[5] = target: ARID1A (human (endogenous in Raji, MLS and EWS cell lines)) (UniProt O14497); assay: proximity ligation; in situ PLA (Duolink) on formaldehyde-fixed MLS cell lines 2645-94 and 402-91 with pairs of primary antibodies against BRG1 or ARID1A and DDIT3 or the C-terminal part of FUS; controls with one primary antibody omitted
[6] = target: BRG1 (human (endogenous in Raji, MLS, EWS and HT1080 cell lines)) (UniProt P51532); assay: as above

Sequences of proteins named here, by UniProt entry; tags and fusion partners are left off.
UniProt P51532: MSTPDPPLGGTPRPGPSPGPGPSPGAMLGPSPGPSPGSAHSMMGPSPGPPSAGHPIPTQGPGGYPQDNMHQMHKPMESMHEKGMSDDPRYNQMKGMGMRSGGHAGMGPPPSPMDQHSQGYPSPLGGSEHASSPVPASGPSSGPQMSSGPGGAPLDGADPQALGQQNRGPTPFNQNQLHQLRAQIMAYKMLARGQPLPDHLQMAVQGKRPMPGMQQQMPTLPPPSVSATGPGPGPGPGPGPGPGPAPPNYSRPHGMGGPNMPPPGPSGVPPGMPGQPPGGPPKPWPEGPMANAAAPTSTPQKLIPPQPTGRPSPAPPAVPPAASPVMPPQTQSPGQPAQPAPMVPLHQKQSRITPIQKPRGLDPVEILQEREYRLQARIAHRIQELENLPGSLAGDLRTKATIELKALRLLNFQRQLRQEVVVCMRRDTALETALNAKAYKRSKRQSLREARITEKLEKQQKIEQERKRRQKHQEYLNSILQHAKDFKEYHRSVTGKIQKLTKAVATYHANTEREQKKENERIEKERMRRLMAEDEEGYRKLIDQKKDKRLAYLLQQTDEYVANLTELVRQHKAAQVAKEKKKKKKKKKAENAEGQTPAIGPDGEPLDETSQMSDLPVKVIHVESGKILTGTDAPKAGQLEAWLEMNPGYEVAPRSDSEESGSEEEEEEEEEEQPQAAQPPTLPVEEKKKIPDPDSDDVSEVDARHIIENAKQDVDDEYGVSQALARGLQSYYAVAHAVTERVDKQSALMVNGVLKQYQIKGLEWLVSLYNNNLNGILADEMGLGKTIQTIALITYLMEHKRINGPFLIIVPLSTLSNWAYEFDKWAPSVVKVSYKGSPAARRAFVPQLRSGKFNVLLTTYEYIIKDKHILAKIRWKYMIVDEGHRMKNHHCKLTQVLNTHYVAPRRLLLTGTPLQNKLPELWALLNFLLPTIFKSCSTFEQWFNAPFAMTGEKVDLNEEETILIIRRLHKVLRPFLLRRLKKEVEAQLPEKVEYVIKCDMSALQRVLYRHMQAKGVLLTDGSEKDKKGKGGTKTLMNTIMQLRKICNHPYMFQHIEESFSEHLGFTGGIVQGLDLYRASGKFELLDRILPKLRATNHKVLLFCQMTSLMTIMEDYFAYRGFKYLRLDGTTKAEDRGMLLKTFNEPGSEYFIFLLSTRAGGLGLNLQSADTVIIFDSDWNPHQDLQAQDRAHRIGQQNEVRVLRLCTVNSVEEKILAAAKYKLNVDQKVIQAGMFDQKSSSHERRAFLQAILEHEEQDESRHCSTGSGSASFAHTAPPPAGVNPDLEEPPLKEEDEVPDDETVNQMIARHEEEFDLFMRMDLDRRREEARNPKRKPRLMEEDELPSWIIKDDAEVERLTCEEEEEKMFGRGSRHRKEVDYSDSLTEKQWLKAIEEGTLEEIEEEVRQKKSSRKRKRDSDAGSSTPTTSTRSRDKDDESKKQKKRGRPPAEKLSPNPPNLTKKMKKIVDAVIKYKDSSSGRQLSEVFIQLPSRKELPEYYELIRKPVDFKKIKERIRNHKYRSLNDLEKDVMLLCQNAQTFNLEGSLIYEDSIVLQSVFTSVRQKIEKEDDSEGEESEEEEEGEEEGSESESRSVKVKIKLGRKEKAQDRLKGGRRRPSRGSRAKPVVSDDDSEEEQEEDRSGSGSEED
UniProt O14497: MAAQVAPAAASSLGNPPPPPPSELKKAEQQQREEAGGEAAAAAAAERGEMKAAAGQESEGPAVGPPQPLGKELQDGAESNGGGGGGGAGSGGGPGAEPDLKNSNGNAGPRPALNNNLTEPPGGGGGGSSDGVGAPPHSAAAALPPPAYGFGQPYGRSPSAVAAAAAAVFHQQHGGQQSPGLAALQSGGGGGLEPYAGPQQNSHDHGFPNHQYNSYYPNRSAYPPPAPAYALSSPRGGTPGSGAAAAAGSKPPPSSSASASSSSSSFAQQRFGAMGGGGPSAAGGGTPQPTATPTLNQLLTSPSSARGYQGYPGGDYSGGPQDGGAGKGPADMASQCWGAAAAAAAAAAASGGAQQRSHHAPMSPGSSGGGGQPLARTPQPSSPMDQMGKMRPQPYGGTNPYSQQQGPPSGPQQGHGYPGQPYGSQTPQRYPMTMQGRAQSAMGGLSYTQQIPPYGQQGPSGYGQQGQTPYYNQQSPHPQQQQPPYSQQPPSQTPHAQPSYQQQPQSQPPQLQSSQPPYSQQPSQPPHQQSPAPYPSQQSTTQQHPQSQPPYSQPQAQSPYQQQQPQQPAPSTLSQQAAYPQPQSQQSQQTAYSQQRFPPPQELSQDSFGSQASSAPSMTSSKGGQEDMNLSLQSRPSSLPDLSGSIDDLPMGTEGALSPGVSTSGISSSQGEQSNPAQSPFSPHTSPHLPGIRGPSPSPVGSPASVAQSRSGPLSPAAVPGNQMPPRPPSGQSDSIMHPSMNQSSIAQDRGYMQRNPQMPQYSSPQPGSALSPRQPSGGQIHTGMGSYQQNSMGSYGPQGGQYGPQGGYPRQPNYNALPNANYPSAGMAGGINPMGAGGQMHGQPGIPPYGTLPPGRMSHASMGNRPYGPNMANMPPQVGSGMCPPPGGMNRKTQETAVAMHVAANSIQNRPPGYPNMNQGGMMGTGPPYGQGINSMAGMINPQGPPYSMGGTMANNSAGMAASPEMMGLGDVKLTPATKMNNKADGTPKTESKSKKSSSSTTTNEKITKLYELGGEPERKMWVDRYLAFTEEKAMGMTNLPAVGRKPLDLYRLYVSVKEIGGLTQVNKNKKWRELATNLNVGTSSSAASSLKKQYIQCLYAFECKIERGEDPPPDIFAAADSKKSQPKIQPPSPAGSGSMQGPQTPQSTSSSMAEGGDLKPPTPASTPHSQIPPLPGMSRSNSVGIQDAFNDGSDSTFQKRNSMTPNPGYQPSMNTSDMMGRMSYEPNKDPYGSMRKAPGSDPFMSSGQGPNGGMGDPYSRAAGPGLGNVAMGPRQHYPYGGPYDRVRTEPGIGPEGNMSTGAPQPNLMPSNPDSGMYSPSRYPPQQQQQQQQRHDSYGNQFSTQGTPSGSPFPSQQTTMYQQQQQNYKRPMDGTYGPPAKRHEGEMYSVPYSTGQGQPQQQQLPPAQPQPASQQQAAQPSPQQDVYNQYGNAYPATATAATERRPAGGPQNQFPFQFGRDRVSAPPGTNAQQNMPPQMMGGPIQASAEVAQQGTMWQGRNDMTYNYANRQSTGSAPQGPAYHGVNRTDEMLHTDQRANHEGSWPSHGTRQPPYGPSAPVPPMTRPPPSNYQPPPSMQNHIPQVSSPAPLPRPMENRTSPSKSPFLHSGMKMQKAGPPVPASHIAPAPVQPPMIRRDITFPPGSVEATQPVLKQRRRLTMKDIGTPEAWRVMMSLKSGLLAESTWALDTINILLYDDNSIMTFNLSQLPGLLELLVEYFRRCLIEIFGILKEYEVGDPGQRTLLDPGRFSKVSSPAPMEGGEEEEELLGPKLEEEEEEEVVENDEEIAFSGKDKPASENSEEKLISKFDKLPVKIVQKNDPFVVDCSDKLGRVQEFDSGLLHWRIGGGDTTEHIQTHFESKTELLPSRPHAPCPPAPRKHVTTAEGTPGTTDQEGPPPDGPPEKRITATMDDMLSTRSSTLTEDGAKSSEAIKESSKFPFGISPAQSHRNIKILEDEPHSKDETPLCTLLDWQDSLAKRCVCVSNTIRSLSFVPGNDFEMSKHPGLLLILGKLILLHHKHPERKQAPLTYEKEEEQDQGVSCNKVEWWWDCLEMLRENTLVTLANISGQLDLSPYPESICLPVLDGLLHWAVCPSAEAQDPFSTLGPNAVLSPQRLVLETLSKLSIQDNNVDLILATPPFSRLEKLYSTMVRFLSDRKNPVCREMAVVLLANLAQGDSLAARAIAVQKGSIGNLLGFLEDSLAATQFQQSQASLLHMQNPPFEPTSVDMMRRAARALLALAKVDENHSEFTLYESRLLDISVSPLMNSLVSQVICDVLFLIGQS
UniProt Q01844: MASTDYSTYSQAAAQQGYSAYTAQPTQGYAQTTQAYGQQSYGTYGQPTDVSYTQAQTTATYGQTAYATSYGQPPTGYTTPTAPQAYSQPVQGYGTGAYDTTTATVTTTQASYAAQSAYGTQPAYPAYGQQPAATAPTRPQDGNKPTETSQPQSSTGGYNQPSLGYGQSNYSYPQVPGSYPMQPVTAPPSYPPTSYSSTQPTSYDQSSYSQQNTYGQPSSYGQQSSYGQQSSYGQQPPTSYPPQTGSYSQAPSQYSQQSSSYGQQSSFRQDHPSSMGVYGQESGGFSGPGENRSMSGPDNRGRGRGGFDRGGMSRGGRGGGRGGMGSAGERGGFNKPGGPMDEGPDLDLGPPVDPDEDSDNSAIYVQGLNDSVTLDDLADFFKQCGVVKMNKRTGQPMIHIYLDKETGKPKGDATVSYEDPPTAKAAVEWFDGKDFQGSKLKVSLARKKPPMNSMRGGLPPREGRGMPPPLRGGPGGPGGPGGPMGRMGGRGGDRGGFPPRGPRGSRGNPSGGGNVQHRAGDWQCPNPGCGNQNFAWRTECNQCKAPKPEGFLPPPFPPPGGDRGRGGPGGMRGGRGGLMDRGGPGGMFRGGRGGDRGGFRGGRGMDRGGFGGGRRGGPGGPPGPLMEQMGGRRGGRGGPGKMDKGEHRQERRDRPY
UniProt P35638: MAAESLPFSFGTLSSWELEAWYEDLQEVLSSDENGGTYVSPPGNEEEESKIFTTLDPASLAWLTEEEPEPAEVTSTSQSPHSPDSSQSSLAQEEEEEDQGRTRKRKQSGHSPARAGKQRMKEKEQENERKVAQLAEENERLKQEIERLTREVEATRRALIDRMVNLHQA
UniProt Q15532: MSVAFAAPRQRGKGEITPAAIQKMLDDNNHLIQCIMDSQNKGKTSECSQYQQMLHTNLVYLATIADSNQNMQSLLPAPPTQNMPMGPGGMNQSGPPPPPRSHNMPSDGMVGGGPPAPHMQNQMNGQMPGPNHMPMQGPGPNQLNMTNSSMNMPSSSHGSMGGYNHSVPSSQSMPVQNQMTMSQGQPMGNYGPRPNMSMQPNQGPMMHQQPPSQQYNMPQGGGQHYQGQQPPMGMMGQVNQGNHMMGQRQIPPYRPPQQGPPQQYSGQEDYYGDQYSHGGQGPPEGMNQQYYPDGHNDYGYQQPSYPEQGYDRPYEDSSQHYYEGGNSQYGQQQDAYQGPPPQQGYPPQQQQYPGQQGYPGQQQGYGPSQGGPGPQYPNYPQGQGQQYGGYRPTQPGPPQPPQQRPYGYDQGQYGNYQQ
UniProt P35637: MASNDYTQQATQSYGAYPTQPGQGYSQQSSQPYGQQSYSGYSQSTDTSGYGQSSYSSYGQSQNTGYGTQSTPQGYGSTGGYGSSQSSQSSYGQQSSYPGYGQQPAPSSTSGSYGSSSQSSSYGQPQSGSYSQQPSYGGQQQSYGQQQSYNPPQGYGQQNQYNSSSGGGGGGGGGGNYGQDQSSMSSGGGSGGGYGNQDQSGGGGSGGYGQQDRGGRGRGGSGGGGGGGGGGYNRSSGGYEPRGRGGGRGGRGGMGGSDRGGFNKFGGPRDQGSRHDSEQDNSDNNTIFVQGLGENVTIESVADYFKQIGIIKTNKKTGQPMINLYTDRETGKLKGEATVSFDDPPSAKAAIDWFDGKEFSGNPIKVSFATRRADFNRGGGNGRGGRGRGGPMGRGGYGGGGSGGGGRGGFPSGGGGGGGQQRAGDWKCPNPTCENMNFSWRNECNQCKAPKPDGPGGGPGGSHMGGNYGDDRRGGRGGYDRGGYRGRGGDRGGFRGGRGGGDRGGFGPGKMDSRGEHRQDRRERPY

EWSR1 (from UniProt Q01844 1-656)
binding [1]: binds
binding [2]: binds
binding [3]: binds

DDIT3‐EGFP (from UniProt P35638 1-169)
binding [4]: binds weakly

SS18 (from UniProt Q15532 1-418)
binding [1]: binds

FUS (from UniProt P35637 1-526)
binding [2]: binds
binding [3]: binds
binding [5]: binds
binding [6]: binds

Source: paper PMC6500973
